Laboratory results: publication PMC2211464
No constants are given. Whether binding was seen depends on the method and setting. Binding seen in cells or lysates may run through a third protein. Binding can be weak; no strength is given.

Protein sequences, listed by entry. Tags and fused reporters are not part of them. Lines headed by an entry give the natural chain unless they say otherwise; changes in a name come on top.
UniProt P63330: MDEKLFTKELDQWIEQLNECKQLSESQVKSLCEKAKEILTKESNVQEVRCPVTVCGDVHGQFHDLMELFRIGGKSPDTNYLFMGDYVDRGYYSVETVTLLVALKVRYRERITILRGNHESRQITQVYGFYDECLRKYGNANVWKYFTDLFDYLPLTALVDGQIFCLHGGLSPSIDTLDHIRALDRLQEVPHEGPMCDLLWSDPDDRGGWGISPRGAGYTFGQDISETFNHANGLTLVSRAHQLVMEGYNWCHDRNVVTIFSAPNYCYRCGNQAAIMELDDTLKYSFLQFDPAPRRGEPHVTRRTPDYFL

Target: GST fusion protein of PP2A C-subunit (UniProt P63330)
Assay: pull-down; GST-PP2A C-subunit or GST alone immobilised on glutathione agarose; incubated 1 hr with cell extracts (2 mg) of Rfz1-expressing F9 cells; washed with PBS with 0.5% NP-40; blot with anti-Dvl2; only the target purified

binding: binds
B1: Dishevelled-2 (protein, UniProt Q60838 1-736)
chain: MAGSSAGGGGVGETKVIYHLDEEETPYLVKIPVPAERITLGDFKSVLQRPAGAKYFFKSMDQDFGVVKEEISDDNARLPCFNGRVVSWLVSSDTPQPEVAPPAHESRTELVPPPPPLPPLPPERTSGIGDSRPPSFHPNVSSSHENLEPETETESVVSLRRDRPRRRDSSEHGAGGHRPGGPSRLERHLAGYESSSTLMTSELESTSLGDSDEDDTMSRFSSSTEQSSASRLLKRHRRRRKQRPPRMERTSSFSSVTDSTMSLNIITVTLNMEKYNFLGISIVGQSNERGDGGIYIGSIMKGGAVAADGRIEPGDMLLQVNDMNFENMSNDDAVRVLRDIVHKPGPIVLTVAKCWDPSPQAYFTLPRNEPIQPIDPAAWVSHSAALTGAFPAYPGSSSMSTITSGSSLPDGCEGRGLSVHMDMASVTKAMAAPESGLEVRDRMWLKITIPNAFLGSDVVDWLYHHVEGFPERREARKYASGLLKAGLIRHTVNKITFSEQCYYVFGDLSGGCESYLVNLSLNDNDGSSGASDQDTLAPLPGATPWPLLPTFSYQYPAPHPYSPQPPPYHELSSYTYGGGSASSQHSEGSRSSGSTRSDGGAGRTGRPEERAPESKSGSGSESELSSRGGSLRRGGEPGGTGDGGPPPSRGSTGAPPNLRALPGLHPYGAPSGMALPYNPMMVVMMPPPPPPVSTAVQPPGAPPVRDLGSVPPELTASRQSFHMAMGNPSEFFVDVM
